Measured values as given in PubChem BioAssay AID1347423 (Functional Genomics Laboratory (NCATS/FGL), 2020).
Among all 52,000 sequences or so, about 210 (0.4%) were called active.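 The calls were made as follows: active = gene whose silencing raises cell survival under the drug, median off-target-corrected z-score across its silencing RNAs 2 or more; inactive = the rest.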 Some of the results follow.

experiment: Resistance to Poly (ADP-Ribose) Polymerase inhibitor: Gene Identification via Genome-wide siRNA Screen; conditions: mouse BRCA2 R2336H ES cells, olaparib, CellTiter-Glo viability; stronger effect = higher value
How it was run: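 Mouse BRCA2 R2336H ES cells were reverse-transfected with siRNA (20 nM final), treated at 48 h with 500 nM olaparib, and read by CellTiter-Glo after 72 h. Scores: MAD-based z per siRNA, median per gene, seed off-target correction.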

Row | Sequence | z-score
1 | GGAACAUGGCUUAAAGUACTT against Mrpl20 | inactive: -1.41
2 | GCAGGCAUCAUCACGACAUTT against Gprc5c | inactive: 0.132
3 | GGGCUUUAAUACUGAGAAGTT against 1110036H21Rik | inactive: -0.981
4 | CAUGAUAGCGAUAGCAAUCTT against Olfr507 | inactive: 0.609
5 | GGACCCAUCGAAACCUCUATT against Pirb | inactive: -0.133
6 | GCACCUAGCAGACAAAUAATT against Ppp1r3a | inactive: -1.41
7 | GGCUGUGAGUAAACUUAUATT against Olfr301 | inactive: 0.194
8 | GGUGAUGGGAAUAAAAACATT against Polg | inactive: -0.631
9 | GGCCUCAAGUUGCUAUGCCTT against Wbscr14 | inactive: 1.13
10 | GGGCGAGCUCUUCAAGUUUTT against Mapk4 | inactive: -0.325
11 | GGGUUUCCUUAUGAGAAAGTT against 1810046J19Rik | inactive: 0.342
12 | GCCCUUCACUCUUCCUUUATT against Olfr137 | inactive: -0.058
13 | GCAUGAUCAAAUUGUAUCUTT against Nde1 | inactive: 0.367
14 | GGAUGGACUUCGUCAUGAATT against Cplx2 | inactive: -2.26
15 | GGACUCUUUGGAACUACAATT against Nup98 | inactive: -3.13
16 | GGCUUUCCCAAAGACUUCUTT against Col11a2 | inactive: -1.73
17 | GGUAAAGUUCACGGUUCCCTT against Fau | inactive: -0.429
18 | GGCAUCGUUUCAGACUCGCTT against Abcc9 | inactive: -0.65
19 | GGAUUAUCAGGAUCUUAUATT against Ate1 | inactive: 1.06
20 | GGGAGACAGAGAAAUCCUGTT against 2310045B01Rik | inactive: 1.34
21 | GGCAUUCACCAUACAAUGATT against 1810045K17Rik | inactive: -1.72
22 | GGGCUCAUCAUUGUUAUUCTT against Olfr394 | inactive: 0.554
23 | GGCACUGCUAUUAACUACATT against 4933414I15Rik | inactive: 0.505
24 | CCUUUUACACUCUAGUAUGTT against Ptger4 | inactive: -0.689
25 | GCUUAUAGAAAACCAGUAATT against Foxd1 | inactive: -1.8
26 | GGAAAACCAAAGGCUCACCTT against Cyp2c29 | inactive: -0.53

Row | Sequence | z-score
27 | CGAAAACCACAGGUUUCUGTT against Col5a1 | inactive: 0.741
28 | GGAUUAGCUCUACAGAAGGTT against Olfr1031 | inactive: 1.59
29 | GCAUUGGCAGACCCGAGUUTT against Pir | inactive: -1.35
30 | GGUACCUCUCAGAUUAAGUTT against Metap1 | inactive: -0.329
31 | GCGGCGAAAAAGAUGCAUGTT against Hbq1 | inactive: -1.84
32 | GCUUGAACCUCAACACCAATT against Gpi1 | inactive: -1.85
33 | CCAGAAUGUAAACUUGGUCTT against Trpv6 | inactive: -0.602
34 | CGGGUAUCAUGUACUACCUTT against Slc6a9 | inactive: -0.499
35 | GGAGAAGAUGAUUAAGACCTT against Anp32b | inactive: -0.309
36 | GGUGGAGAGUGAACAACAATT against Tpr | inactive: -2.34
37 | GGUUUGAAAGGAGAAAGAGTT against Col4a6 | inactive: -0.833
38 | GGGCAAGAAAGGUGUUUUGTT against Prdx5 | inactive: 0.469
39 | GGUUUUCAAACCCUUGUGGTT against Rnf44 | inactive: 0.232
40 | GGGAUUUAAAGCCAACUUGTT against Sfpq | inactive: 1.72
41 | GGAUUUGGCUACAAAAACATT against Ppib | inactive: 0.381
42 | GCCGCAUAAUCAGAAAGGCTT against Pipox | inactive: 0.183
43 | GGCCAAUGAUGAUAACAAATT against Catnd2 | inactive: 0.564
44 | GCUCGCAUUUCCAUAAUACTT against Gm225 | inactive: -0.805
45 | CCUUAACUAUGGAGGAGUUTT against Rims4 | inactive: -0.34
46 | CGGCUUCUCUCUUUACACATT against Fosb | inactive: 1.55
47 | CGUCUCUGCUGAGAACAUGTT against Kcnk15 | active: 2.15
48 | GGUGAAACUUGUUGAUUUUTT against Map4k4 | inactive: 1.59
49 | GCUCUAGGCCAGAUGUUACTT against Slc13a3 | inactive: -1.04
50 | CCCUAAAUGCUUCGUAUGCTT against D930036B08Rik | inactive: -0.118
51 | GCAUAGCUCAAAUCAAGGATT against Sik2 | inactive: 1.51
52 | GCAUCAGAUUAGGCAGGAATT against 6030498E09Rik | inactive: -0.849

Row | Sequence | z-score
53 | GCUACAUUUCAUCAGCAAATT against Zfp336 | inactive: 0.508
54 | GGCCAGUGUUACUGAGGAATT against 1700037C18Rik | inactive: -0.513
55 | CGUAGACUCCAAGCUCAAUTT against Ddx54 | inactive: -0.414
56 | GGCACUAAAACAAUCGUCATT against Cyp26a1 | inactive: 0.726
57 | GGCUCUGCUAUUUCUCCUGTT against Olfr17 | inactive: -1.17
58 | GGUUUGCCCUGACACUUGUTT against A330096I21Rik | inactive: -2.25
59 | CCGUUAAGCUCACUUGUCUTT against Notch4 | inactive: -0.159
60 | GGGACCAACAUCAAUAAUGTT against Itih4 | inactive: 1.17
61 | GUUUGCUGCACCCUACUUATT against Hist2h2be | inactive: 1.4
62 | GCUACAUCGCUCUUAUAGCTT against Foxl1 | inactive: 0.432
63 | GGUUAAUCUUAACAACAUCTT against Tmod1 | inactive: 0.0275
64 | GCUUGAGCUUAUUAAUGUUTT against C030032C09Rik | inactive: 0.173
65 | GCUGUUAGGUUCAUUACCATT against Herc2 | inactive: -0.343
66 | CCCAGGCAUACUACAAGGUTT against A330104H05Rik | inactive: -0.768
67 | GGCUUCUAGUGGGAUGUAATT against Dnb5 | inactive: -1.86
68 | GGACAUGUUCAAUGUGAAUTT against BC022224 | inactive: -0.155
69 | GGAACAAAGGCUGAUCCAGTT against Chrnd | inactive: -0.529
70 | CCUCAUUCAGGGAGUUCCATT against 2200002J24Rik | inactive: -2.37
71 | CCAACAUUCACACAUCUGATT against Syngr2 | inactive: -0.853
72 | GGGCUAUCUCAGGUGGAAUTT against E430012M05Rik | inactive: 1.37
73 | CCAUUAUCCUGGUGUGUAUTT against Olfr1362 | inactive: -1.92
74 | GGUAGACCGUCCGAAAAGATT against D11Wsu47e | inactive: -0.512
75 | CCCGUUCAUAUACUUCUUUTT against Ebi2 | inactive: 0.742
76 | GGAGAAAUUUCUGAGAAGATT against D630035O19Rik | inactive: 0.971
77 | GGCCAAUCAGAUAACUAAATT against 3110002L15Rik | inactive: -1
78 | GGAGACCAUCAUGUCUUUATT against Olfr378 | inactive: 1.21

Three entries from above, as comma-separated lines.
Row,Sequence,z-score
53,GCUACAUUUCAUCAGCAAATT against Zfp336,inactive: 0.508
54,GGCCAGUGUUACUGAGGAATT against 1700037C18Rik,inactive: -0.513
63,GGUUAAUCUUAACAACAUCTT against Tmod1,inactive: 0.0275

Quoted from the listing:
GCUUGAGCUUAUUAAUGUUTT against C030032C09Rik | z-score: inactive: 0.173
GGUUAAUCUUAACAACAUCTT against Tmod1 | z-score: inactive: 0.0275
CCCAGGCAUACUACAAGGUTT against A330104H05Rik | z-score: inactive: -0.768
GCUACAUCGCUCUUAUAGCTT against Foxl1 | z-score: inactive: 0.432
CCCGUUCAUAUACUUCUUUTT against Ebi2 | z-score: inactive: 0.742

Next part:

Row | Sequence | z-score
79 | GGCAUCUUUUGAAACAAUATT against D0H8S2298E | inactive: 0.77
80 | GGGCAUUGUCCGAAUGAAUTT against 4930433N12Rik | inactive: -0.589
81 | GGUACAUGUCACUGUGGCATT against Itgbl1 | inactive: 0.414
82 | GUUGUCCAUAUCAUGUUUGTT against Olfr569 | inactive: -0.804
83 | CGGACAGUUAUUAUGCAUATT against Sdcbp | inactive: 0.165
84 | CCGACAUAUUUGUAGCUGGTT against Cyp2c55 | inactive: -1.07
85 | CCUGGUCACAGGCAUUAAATT against 4930526D03Rik | inactive: -0.226
86 | GGAUGUCACAUGACAGUUUTT against Tmprss4 | inactive: -2.77
87 | GCCGGUGACUUUCUAAUUUTT against BC023823 | inactive: -1.58
88 | GGUGACACAGUACAAGAAGTT against Rpl36a | inactive: 1.33
89 | GGCAGAAUUGGCACAGAAATT against U2af1-rs2 | inactive: -0.239
90 | CGACGUGGCACAGAAUAUCTT against Ssbp1 | inactive: -0.1
91 | GGUGGUCCUGGCCUAUGAATT against Tpi1 | inactive: 1.17
92 | CCAUGUCGUAUGUGAUUCUTT against Hils1 | inactive: 2.07
93 | GGGUCCCAAACAAUAACUUTT against Aebp1 | inactive: 1.05
94 | GCAUCGUUACAGGACUUUATT against Enpp1 | inactive: -0.601
95 | GGACUGGCUCUGAAAAAAATT against 2310066N05Rik | inactive: 0.186
96 | GCGAGAGACAACUGACUAATT against Cnbp2 | inactive: -1.58
97 | CGUACAACACGGAAACCUATT against Paqr5 | inactive: 1.79
98 | GCAAUAGCAGCAACUCUUATT against Dbpht1 | inactive: 0.61
99 | GGAGGGAGUAUAUUUUCUATT against Mgll | inactive: -0.701
100 | GGCUGUAUGAAUCAAAGGATT against Nr5a2 | inactive: -1.06
101 | CCUAUUAUUCCAACUUUUGTT against Ceecam1 | inactive: 0.442
102 | GGCCAUACGGACCAUGUAUTT against Slc25a19 | inactive: -0.397
103 | GGUAAACCUGUGUUUUGAUTT against Cyfip2 | inactive: -0.196
104 | GGAAGAUCAGAGAUGGACATT against 4432409M07Rik | inactive: -2.25
